In the supplement of paper PMC12823440, “Inhibitors supercharge kinase turnover through native proteolytic circuits” (Nature, 2025):
This is one part of the list. The calls rarely recur for the same compound in another form.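 Kinases, fused to nanoluciferase, were expressed in K562 cells; luminescence was measured every 4 h from 2 to 18 h as percent of control (DMSO = 100%, positive control = 0%). A time point is decreased if signal falls significantly (2 sigma). Hits were called by the authors by a rule that is not shown; the count of time points alone does not decide it.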

Chains of the proteins cited; added tags and fusions are not shown. Lines headed by an entry give the natural chain unless they say otherwise; changes in a name come on top.
UniProt Q14289, whole entry, looked up: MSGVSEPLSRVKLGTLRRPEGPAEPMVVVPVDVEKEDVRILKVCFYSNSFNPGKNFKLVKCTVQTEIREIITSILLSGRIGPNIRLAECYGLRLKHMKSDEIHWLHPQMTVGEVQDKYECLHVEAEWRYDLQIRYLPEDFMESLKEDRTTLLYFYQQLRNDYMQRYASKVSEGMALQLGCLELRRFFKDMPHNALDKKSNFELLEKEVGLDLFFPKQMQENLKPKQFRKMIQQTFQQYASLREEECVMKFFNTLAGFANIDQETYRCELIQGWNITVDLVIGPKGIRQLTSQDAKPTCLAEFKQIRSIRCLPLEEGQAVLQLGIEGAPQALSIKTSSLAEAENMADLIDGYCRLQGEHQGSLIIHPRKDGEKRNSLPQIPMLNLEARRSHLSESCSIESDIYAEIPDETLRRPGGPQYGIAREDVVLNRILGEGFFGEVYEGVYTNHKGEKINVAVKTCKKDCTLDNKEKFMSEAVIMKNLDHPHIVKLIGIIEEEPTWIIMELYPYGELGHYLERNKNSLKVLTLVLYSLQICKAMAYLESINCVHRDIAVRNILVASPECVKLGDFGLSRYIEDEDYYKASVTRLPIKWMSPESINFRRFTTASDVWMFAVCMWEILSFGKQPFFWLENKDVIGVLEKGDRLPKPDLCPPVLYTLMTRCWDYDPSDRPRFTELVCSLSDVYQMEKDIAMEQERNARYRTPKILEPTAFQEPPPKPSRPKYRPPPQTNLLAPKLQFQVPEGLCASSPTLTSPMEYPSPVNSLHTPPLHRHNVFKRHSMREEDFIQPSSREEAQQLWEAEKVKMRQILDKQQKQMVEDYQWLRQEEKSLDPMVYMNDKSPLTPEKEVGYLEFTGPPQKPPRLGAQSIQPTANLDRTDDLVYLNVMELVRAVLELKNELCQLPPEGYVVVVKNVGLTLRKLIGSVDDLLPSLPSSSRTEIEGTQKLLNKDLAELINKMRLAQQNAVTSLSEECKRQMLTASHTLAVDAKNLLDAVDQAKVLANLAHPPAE
UniProt P07949, whole entry, looked up: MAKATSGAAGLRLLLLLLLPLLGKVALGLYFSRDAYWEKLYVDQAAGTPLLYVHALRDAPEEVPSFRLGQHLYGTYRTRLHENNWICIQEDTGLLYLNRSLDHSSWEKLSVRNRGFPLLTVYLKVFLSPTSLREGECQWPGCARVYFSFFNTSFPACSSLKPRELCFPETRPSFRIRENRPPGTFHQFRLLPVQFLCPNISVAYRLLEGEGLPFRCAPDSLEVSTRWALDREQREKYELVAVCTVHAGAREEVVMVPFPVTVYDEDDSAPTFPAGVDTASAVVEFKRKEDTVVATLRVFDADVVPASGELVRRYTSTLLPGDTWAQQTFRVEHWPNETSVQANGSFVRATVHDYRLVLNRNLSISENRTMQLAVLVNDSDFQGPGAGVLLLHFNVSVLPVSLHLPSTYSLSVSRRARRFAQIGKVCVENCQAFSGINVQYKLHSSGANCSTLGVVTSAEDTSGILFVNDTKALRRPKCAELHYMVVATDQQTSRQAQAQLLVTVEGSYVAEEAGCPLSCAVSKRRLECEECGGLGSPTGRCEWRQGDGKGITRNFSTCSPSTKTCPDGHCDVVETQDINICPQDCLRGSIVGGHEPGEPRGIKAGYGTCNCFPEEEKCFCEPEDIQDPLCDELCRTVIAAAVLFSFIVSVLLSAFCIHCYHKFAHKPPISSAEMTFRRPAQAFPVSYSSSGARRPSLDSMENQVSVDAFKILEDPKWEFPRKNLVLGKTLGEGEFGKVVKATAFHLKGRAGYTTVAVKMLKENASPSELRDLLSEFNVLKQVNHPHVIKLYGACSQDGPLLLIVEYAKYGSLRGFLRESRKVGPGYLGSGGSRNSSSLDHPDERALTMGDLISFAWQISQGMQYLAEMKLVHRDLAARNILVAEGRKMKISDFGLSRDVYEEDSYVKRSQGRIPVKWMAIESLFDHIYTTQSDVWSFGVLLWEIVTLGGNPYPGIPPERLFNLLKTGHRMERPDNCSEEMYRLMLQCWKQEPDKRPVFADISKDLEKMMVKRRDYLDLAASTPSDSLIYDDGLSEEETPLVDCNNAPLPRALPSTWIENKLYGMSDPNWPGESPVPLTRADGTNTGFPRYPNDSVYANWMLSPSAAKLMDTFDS
UniProt P07949, whole entry M918T, looked up: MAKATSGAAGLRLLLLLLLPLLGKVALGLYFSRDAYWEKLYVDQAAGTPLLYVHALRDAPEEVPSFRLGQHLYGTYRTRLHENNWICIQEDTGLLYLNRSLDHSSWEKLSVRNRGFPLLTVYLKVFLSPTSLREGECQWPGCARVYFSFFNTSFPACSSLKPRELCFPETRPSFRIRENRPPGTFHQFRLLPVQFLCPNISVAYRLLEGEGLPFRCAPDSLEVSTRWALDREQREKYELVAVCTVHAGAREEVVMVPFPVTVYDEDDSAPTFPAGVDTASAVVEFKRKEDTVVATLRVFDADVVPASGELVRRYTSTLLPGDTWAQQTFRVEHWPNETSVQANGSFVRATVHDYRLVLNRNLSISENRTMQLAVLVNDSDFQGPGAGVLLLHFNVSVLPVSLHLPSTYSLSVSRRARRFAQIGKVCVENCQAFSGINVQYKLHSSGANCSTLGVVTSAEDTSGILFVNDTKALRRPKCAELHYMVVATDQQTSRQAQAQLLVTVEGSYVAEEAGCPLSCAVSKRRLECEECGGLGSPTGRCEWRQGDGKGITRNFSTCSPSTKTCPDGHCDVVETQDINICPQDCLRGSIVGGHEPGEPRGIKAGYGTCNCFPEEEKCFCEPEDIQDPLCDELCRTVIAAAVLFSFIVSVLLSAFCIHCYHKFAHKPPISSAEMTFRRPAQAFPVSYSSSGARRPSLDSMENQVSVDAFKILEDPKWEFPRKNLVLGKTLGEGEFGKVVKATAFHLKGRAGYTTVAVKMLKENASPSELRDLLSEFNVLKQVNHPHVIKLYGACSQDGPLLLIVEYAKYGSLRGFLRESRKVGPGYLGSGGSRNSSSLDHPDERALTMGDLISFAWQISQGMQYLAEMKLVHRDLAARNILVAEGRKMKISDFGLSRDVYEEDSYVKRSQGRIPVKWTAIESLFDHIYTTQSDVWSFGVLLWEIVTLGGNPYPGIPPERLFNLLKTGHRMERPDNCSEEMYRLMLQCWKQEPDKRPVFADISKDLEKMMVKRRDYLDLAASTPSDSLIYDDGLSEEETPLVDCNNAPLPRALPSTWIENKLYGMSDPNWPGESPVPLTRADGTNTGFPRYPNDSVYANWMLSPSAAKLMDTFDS
UniProt Q9BRS2: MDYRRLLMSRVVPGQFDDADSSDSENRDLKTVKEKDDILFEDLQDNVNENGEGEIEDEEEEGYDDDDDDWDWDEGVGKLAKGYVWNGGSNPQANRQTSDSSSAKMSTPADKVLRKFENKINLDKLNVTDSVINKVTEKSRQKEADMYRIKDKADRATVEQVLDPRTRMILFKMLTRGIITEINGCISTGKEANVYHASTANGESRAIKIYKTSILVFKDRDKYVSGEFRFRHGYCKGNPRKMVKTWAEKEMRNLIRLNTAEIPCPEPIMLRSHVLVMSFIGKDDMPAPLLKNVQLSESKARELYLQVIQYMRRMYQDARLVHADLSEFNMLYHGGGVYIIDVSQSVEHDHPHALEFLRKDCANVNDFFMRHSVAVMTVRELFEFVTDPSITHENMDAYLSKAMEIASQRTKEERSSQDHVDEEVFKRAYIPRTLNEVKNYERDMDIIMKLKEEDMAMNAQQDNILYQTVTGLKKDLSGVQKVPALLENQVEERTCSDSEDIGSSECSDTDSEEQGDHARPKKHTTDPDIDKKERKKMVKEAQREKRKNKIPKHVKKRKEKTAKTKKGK
UniProt Q9NYA1, whole entry: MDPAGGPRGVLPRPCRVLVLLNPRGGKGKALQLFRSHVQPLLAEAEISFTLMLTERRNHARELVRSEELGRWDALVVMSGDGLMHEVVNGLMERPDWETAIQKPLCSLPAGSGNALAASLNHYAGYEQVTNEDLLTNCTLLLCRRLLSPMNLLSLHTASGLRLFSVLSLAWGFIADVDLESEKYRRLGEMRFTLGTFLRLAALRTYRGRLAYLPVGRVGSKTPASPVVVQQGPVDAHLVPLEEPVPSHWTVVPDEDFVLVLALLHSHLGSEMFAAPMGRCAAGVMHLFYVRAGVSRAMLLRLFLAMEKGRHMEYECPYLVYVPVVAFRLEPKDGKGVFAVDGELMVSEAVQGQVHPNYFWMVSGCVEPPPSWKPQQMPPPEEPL
UniProt Q9Y6E0: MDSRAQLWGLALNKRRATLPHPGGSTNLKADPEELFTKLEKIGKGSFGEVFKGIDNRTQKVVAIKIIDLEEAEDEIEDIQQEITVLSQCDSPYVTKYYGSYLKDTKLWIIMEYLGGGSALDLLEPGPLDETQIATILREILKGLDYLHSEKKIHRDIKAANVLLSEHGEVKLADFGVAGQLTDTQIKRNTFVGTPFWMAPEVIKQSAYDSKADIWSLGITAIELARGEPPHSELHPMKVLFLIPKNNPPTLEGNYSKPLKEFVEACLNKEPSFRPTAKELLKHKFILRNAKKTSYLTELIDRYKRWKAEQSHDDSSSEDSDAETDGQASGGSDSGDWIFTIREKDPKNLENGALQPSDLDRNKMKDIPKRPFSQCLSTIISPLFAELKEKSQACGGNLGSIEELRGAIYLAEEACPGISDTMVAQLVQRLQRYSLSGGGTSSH
UniProt P42680: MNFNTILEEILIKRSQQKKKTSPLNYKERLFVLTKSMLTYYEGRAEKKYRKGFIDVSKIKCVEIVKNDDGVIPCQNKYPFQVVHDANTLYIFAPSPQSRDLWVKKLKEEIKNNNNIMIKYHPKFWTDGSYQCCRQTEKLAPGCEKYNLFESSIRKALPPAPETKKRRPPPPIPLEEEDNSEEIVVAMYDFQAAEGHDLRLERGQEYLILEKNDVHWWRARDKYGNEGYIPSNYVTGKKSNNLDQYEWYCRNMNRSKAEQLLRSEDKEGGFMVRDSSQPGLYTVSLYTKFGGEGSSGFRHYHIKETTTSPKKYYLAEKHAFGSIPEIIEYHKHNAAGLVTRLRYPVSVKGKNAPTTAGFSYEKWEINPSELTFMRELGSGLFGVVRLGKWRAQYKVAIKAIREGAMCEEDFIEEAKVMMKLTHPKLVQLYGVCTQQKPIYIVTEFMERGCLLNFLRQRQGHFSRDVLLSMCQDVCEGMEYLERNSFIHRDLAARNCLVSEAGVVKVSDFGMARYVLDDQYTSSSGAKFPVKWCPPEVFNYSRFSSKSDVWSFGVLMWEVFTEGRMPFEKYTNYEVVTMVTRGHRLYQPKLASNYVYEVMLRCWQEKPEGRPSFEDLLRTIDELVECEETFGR
UniProt Q6PHR2: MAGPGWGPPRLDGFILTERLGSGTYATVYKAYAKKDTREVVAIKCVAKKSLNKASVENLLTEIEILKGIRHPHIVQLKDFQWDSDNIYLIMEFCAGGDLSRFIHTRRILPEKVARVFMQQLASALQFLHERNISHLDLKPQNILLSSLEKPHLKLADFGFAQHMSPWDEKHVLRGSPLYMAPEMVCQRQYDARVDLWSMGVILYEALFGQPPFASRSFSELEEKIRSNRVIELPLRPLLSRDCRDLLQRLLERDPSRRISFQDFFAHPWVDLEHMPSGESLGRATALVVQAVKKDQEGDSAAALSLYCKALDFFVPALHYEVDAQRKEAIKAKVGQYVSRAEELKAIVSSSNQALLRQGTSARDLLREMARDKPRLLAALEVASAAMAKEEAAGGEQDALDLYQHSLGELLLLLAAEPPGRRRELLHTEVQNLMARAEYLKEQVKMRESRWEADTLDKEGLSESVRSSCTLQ

What was measured:
Assay in all cases: number of time points (of 5) at which kinase-Nluc abundance scored as decreased, DMSO-normalised (count); higher = more persistent destabilization
Conditions in all cases: K562; 2-18 h
PRKCA = PRKCA (UniProt P17252)
PTK2 = PTK2 (UniProt Q05397)
PTK2B = PTK2B (UniProt Q14289)
RAF1 = RAF1 (UniProt P04049)
[1] = molecular target: RAF1_S257L (clone: RAF1_mut) (UniProt P04049)
RET = RET (UniProt P07949)
[2] = molecular target: RET_M918T (clone: RET_mut) (UniProt P07949)
RIOK1 = RIOK1 (UniProt Q9BRS2)
RIPK1 = RIPK1 (UniProt Q13546)
RIPK2 = RIPK2 (UniProt O43353)
ROR2 = ROR2 (UniProt Q01974)
RPS6KA1 = RPS6KA1 (UniProt Q15418)
SPHK1 = SPHK1 (UniProt Q9NYA1)
SRC = SRC (UniProt P12931)
STK24 = STK24 (UniProt Q9Y6E0)
STK38 = STK38 (UniProt Q15208)
SYK = SYK (UniProt P43405)
TEC = TEC (UniProt P42680)
TYK2 = TYK2 (UniProt P29597)
ULK3 = ULK3 (UniProt Q6PHR2)

Row | SMILES | number of time points (PRKCA) | number of time points (PTK2) | number of time points (PTK2B) | number of time points (RAF1) | number of time points [1] | number of time points (RET) | number of time points [2] | number of time points (RIOK1) | number of time points (RIPK1) | number of time points (RIPK2) | number of time points (ROR2) | number of time points (RPS6KA1) | number of time points (SPHK1) | number of time points (SRC) | number of time points (STK24) | number of time points (STK38) | number of time points (SYK) | number of time points (TEC) | number of time points (TYK2) | number of time points (ULK3)
1 | O=c1ccc2ccc(O)c(O)c2o1 [Daphnetin] (10 µM) | 0 | 0 | 0 | 0 | 0 | 0 | 0 | 0 | 0 | 0 | 0 | 0 | 0 | 0 | 0 | 0 | 0 | 0 | 0 | 0
2 | C[C@@H]1CCc2ncc(F)cc2[C@H]2CCCN2c2ccn3ncc(c3n2)C(=O)N1 [Selitrectinib] (10 µM) | 0 | 0 | 0 | 0 | 0 | 0 | 0 | 0 | 0 | 0 | 0 | 0 | 0 | 0 | 0 | 0 | 0 | 0 | 0 | 0
3 | O=C1NC(=O)C(c2cn(-c3ccccc3)nc2-c2ccc(F)cc2)N1 (stereo not given) (10 µM) | 0 | 0 | 0 | 0 | 0 | 0 | 0 | 0 | 0 | 0 | 0 | 0 | 0 | 0 | 0 | 0 | 0 | 0 | 0 | 0
4 | N#C/C(=C(/N)Sc1ccc(N)cc1)c1ccccc1C(F)(F)F (10 µM) | 0 | 0 | 0 | 0 | 0 | 0 | 0 | 0 | 0 | 0 | 0 | 0 | 0 | 0 | 0 | 0 | 0 | 0 | 0 | 0
5 | O=C(NOCCO)c1ccc2cncn2c1Nc1ccc(I)cc1F (10 µM) | 0 | 0 | 0 | 1 | 0 | 0 | 0 | 1 | 1 | 0 | 0 | 0 | 0 | 0 | 0 | 0 | 0 | 0 | 0 | 2
6 | CN(C)Cc1cccc(N=C(c2ccccc2)c2c(O)[nH]c3cc(C(=O)N(C)C)ccc23)c1 (10 µM) | 0 | 0 | 0 | 0 | 0 | 0 | 0 | 0 | 0 | 0 | 0 | 0 | 0 | 0 | 0 | 0 | 0 | 0 | 0 | 0
7 | Cc1ccc(-c2nn(C(C)(C)CNC(=O)c3ccncc3)c3ncnc(N)c23)cc1 (2.5 µM) | 0 | 0 | 0 | 0 | 0 | 0 | 0 | 0 | 0 | 0 | 0 | 0 | 0 | 0 | 0 | 0 | 0 | 0 | 0 | 0
8 | COc1cc(N2CCC(N3CCN(C)CC3)CC2)ccc1Nc1nc2c(c(Nc3ccccc3S(=O)(=O)NC(C)C)n1)CCN2 [Conteltinib] (10 µM) | 0 | 0 | 0 | 0 | 0 | 0 | 0 | 0 | 0 | 0 | 0 | 0 | 0 | 0 | 0 | 0 | 0 | 0 | 0 | 0
9 | OCCN(CCO)c1ccc(C(c2ccc(Cl)cc2)c2ccc(N(CCO)CCO)cc2)cc1 (10 µM) | 0 | 1 | 0 | 1 | 0 | 0 | 0 | 3 | 1 | 2 | 0 | 0 | 0 | 0 | 0 | 0 | 0 | 0 | 0 | 3
10 | CC[C@H](Nc1ncnc2[nH]cnc12)c1oc2ccccc2c(=O)c1-c1cccc(F)c1 [Tenalisib] (10 µM) | 0 | 0 | 0 | 0 | 0 | 0 | 0 | 0 | 0 | 0 | 0 | 0 | 0 | 0 | 0 | 0 | 0 | 0 | 0 | 0
11 | Cc1cc(Nc2nc(N[C@@H](C)c3ncc(F)cn3)ncc2Cl)[nH]n1 (10 µM) | 0 | 0 | 0 | 0 | 0 | 0 | 0 | 0 | 0 | 0 | 0 | 0 | 0 | 0 | 0 | 0 | 0 | 0 | 0 | 0
12 | Cn1cc(-c2ccc(F)c(C(F)(F)F)c2)nc1C1CCN(c2ncnc3[nH]ncc23)CC1 (10 µM) | 0 | 0 | 0 | 0 | 0 | 0 | 0 | 0 | 0 | 0 | 0 | 0 | 0 | 0 | 0 | 0 | 0 | 0 | 0 | 0

Full records from above. Order of values: number of time points (PRKCA) | number of time points (PTK2) | number of time points (PTK2B) | number of time points (RAF1) | number of time points [1] | number of time points (RET) | number of time points [2] | number of time points (RIOK1) | number of time points (RIPK1) | number of time points (RIPK2) | number of time points (ROR2) | number of time points (RPS6KA1) | number of time points (SPHK1) | number of time points (SRC) | number of time points (STK24) | number of time points (STK38) | number of time points (SYK) | number of time points (TEC) | number of time points (TYK2) | number of time points (ULK3)
`N#C/C(=C(/N)Sc1ccc(N)cc1)c1ccccc1C(F)(F)F` (10 µM) in the list: 0 | 0 | 0 | 0 | 0 | 0 | 0 | 0 | 0 | 0 | 0 | 0 | 0 | 0 | 0 | 0 | 0 | 0 | 0 | 0
`O=C(NOCCO)c1ccc2cncn2c1Nc1ccc(I)cc1F` (10 µM) in the list: 0 | 0 | 0 | 1 | 0 | 0 | 0 | 1 | 1 | 0 | 0 | 0 | 0 | 0 | 0 | 0 | 0 | 0 | 0 | 2
